Measured values as given in doi:10.1101/2021.09.20.461083.
Read-outs that look alike come from different tables or passages of the source. No constants are given. Whether binding was seen depends on the method and setting. In cells and extracts the contact can be indirect. Some results given as binding are weak or reduced against the parent protein; the word gives no strength.

Sequences of proteins named here, by UniProt entry; tags and fusion partners are left off.
UniProt Q13342, whole entry: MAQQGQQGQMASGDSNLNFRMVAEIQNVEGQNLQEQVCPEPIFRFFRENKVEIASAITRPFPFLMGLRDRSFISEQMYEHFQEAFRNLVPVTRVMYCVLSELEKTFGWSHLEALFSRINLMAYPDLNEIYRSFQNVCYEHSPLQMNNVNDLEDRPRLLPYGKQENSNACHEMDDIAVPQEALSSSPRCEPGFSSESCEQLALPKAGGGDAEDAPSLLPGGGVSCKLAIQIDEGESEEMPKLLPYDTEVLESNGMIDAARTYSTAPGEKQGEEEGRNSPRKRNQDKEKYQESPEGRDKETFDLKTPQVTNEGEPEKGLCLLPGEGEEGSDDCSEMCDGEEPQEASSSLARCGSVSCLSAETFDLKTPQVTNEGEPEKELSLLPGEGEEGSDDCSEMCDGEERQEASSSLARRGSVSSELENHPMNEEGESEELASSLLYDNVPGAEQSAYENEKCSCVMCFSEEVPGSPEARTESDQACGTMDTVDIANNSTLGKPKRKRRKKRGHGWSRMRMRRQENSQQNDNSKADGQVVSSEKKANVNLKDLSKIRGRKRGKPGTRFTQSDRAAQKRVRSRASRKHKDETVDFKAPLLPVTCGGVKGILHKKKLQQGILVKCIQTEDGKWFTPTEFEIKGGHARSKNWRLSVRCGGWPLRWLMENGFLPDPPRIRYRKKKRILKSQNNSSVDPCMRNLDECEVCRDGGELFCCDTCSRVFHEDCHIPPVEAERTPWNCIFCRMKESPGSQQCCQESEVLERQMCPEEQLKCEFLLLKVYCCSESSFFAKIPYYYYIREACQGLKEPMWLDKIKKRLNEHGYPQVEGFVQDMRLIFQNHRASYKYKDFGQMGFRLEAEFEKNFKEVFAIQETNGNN
UniProt Q9Y5B9, whole entry: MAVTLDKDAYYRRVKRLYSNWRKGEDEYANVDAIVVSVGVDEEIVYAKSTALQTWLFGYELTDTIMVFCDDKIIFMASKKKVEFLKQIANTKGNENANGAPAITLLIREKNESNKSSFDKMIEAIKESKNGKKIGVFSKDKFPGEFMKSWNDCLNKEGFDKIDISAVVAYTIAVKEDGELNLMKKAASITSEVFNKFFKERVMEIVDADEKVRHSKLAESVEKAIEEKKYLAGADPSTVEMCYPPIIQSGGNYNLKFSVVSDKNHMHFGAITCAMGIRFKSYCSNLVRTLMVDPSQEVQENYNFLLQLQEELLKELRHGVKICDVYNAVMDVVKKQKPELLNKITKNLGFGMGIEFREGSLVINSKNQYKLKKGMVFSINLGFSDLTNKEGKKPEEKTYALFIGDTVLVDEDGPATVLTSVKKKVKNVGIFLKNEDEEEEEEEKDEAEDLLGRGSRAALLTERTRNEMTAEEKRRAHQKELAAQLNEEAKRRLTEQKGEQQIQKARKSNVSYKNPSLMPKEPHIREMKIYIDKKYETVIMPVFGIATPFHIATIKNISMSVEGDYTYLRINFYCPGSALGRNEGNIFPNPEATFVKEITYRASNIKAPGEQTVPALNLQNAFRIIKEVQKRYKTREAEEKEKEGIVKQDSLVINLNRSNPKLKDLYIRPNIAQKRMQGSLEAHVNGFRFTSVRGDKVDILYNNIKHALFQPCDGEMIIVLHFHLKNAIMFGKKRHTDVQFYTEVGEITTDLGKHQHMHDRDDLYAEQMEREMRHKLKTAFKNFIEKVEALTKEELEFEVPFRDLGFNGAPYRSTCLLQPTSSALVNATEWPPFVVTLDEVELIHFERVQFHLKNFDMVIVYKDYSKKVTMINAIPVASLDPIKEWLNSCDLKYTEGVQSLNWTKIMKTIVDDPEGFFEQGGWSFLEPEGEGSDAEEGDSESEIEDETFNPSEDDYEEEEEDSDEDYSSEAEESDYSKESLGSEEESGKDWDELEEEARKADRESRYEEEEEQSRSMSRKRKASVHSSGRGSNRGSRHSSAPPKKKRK
UniProt Q08945, whole entry: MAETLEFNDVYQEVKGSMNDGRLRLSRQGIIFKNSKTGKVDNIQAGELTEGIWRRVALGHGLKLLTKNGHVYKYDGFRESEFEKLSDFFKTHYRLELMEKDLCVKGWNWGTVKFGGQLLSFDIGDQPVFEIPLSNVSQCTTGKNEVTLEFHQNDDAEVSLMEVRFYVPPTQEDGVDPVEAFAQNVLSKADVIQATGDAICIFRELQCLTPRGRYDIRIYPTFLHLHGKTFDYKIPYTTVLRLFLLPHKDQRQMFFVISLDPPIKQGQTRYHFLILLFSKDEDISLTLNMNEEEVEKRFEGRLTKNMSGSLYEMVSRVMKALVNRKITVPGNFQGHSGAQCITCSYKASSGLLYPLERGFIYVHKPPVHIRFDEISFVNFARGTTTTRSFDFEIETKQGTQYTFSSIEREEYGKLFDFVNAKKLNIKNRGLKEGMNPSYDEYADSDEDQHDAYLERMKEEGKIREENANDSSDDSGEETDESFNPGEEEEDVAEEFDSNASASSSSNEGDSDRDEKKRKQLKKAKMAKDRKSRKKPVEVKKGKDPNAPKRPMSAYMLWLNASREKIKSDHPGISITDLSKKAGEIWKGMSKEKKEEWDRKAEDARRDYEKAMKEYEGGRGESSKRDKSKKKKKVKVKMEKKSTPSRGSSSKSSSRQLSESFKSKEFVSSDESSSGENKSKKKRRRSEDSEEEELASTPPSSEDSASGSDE
UniProt P11388, whole entry: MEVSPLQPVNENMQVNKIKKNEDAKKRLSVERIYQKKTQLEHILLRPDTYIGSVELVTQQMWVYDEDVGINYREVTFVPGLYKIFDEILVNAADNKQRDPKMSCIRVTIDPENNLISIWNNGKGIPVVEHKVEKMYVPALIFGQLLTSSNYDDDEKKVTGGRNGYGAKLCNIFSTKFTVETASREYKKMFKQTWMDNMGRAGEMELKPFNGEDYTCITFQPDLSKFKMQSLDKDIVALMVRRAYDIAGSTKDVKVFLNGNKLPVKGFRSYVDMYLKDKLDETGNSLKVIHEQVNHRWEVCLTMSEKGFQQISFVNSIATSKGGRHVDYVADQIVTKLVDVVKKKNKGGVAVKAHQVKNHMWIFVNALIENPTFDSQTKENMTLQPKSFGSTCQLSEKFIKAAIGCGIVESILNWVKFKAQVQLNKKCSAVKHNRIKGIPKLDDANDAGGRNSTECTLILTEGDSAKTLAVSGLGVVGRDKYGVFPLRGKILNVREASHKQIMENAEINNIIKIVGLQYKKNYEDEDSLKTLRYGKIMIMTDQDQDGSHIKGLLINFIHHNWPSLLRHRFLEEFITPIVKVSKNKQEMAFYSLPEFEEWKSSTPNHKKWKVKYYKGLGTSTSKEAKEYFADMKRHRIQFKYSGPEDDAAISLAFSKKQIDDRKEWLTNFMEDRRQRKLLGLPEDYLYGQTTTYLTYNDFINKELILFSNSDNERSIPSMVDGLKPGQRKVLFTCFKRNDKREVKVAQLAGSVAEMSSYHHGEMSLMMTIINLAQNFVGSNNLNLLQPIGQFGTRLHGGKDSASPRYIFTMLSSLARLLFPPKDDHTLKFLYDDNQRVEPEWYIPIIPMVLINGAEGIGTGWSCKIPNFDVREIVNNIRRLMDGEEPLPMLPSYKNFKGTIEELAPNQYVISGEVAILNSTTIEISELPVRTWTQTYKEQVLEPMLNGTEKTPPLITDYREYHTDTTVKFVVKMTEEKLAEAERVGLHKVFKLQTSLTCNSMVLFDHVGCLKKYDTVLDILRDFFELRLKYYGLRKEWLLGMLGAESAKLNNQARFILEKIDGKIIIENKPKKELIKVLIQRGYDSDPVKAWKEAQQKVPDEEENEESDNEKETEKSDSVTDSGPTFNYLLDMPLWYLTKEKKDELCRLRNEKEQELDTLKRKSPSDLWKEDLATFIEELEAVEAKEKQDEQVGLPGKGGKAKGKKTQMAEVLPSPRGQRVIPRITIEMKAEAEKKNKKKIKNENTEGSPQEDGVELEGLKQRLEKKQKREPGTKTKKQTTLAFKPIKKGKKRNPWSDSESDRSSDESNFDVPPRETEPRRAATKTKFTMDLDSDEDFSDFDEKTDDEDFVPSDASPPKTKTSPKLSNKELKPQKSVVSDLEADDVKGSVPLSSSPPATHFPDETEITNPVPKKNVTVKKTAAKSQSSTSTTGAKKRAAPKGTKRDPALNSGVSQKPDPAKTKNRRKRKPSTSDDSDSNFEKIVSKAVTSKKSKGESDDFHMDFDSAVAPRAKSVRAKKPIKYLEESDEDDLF
UniProt P11387, whole entry: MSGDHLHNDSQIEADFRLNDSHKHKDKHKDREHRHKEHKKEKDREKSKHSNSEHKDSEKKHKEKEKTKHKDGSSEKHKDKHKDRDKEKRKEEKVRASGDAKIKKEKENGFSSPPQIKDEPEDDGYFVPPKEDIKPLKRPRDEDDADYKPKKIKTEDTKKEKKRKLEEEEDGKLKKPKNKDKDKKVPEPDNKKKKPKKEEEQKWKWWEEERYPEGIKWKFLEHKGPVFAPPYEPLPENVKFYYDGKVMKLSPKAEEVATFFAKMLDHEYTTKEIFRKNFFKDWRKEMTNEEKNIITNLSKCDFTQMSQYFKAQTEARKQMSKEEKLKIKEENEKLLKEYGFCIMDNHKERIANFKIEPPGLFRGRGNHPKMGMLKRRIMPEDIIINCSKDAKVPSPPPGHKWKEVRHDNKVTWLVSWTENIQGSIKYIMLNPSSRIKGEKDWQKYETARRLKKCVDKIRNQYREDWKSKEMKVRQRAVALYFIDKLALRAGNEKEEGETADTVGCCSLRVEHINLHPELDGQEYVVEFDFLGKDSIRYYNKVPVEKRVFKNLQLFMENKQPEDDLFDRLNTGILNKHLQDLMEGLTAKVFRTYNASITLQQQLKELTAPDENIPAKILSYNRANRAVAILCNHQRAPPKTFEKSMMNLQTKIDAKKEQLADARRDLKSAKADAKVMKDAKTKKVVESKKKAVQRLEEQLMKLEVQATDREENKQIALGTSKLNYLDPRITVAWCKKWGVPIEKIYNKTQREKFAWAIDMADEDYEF
UniProt Q02880, whole entry: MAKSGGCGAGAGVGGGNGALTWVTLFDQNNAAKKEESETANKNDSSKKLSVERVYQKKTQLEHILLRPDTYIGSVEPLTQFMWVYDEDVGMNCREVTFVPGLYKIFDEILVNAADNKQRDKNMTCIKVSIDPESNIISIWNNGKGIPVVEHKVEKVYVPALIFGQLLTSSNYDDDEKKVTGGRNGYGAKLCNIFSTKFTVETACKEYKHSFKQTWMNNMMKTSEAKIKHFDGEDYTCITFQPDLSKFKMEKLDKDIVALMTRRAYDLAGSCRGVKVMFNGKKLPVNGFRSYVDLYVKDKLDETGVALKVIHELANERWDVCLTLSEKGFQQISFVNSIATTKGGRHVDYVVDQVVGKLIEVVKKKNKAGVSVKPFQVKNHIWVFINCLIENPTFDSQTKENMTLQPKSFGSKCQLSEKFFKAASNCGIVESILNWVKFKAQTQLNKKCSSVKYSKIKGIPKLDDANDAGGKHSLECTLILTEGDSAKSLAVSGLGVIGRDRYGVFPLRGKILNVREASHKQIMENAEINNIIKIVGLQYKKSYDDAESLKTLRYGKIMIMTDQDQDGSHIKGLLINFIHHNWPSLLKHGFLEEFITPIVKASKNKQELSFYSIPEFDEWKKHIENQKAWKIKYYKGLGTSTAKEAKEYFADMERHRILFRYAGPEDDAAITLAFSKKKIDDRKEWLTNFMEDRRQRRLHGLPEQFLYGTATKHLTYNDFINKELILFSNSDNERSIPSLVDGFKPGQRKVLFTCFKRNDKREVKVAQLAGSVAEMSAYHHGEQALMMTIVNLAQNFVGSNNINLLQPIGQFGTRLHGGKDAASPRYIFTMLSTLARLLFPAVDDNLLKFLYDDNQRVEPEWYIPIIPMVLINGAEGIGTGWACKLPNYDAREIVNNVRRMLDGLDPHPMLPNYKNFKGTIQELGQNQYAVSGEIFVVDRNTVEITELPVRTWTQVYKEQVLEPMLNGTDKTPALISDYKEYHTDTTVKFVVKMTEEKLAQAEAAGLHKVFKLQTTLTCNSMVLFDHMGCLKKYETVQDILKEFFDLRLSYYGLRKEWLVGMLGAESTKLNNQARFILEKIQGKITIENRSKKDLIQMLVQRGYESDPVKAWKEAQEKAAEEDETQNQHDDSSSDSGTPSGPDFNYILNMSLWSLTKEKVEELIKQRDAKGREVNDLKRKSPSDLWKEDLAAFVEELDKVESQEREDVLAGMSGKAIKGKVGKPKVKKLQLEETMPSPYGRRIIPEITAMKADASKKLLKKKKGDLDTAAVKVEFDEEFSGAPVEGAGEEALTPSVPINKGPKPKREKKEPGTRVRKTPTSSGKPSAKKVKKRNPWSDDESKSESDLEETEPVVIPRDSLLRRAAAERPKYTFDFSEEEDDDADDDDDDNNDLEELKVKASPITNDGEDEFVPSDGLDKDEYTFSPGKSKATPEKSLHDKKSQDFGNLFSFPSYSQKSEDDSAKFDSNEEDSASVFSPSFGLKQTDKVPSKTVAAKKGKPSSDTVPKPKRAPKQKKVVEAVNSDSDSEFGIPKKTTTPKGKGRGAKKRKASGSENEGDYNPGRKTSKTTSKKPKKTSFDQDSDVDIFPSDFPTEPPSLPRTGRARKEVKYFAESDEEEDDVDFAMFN

Legend:
Assay in all cases: co-IP
[1] = molecular target: endogenous SP140 (wild-type) (human (endogenous in THP1 and LBL)) (UniProt Q13342)
[2] = molecular target: FLAG-tagged human SP140 (Speckled Protein 140) (human) (UniProt Q13342)
[3] = molecular target: endogenous SP140 (wild-type) (human (endogenous in THP1 and LBL)) (UniProt Q13342); remark: listed apart in the source
[4] = molecular target: Facilitates chromatin transcription (FACT) complex subunit SPT16 (SUPT16H) (human (endogenous in HEK293T, THP1, LBL)) (UniProt Q9Y5B9)
[5] = molecular target: FACT complex subunit SSRP1 (SSRP1) (human (endogenous in HEK293T, THP1, LBL)) (UniProt Q08945)
[6] = molecular target: Topoisomerase II alpha (TOP2A) (human (endogenous in HEK293T, THP1, LBL)) (UniProt P11388)
[7] = molecular target: DNA-dependent protein kinase (DNA-PK) (human (endogenous in HEK293T, THP1, LBL)) (UniProt P78527)
[8] = molecular target: Topoisomerase I (TOP1) (human (endogenous in HEK293T, THP1, LBL)) (UniProt P11387)
[9] = molecular target: FLAG-tagged human SP140 (Speckled Protein 140) (human) (UniProt Q13342); remark: listed apart in the source
[10] = molecular target: HA-Aire (Autoimmune Regulator, AIRE) (UniProt O43918)

Row | Substance | binding [1] | binding [2] | binding [3] | other results
1 | FLAG-tagged human SP140 (Speckled Protein 140) (from UniProt Q13342 1-867) | – | – | – | binding [4]: binds; binding [5]: binds; binding [6]: binds; binding [7]: binds; binding [8]: binds
2 | SWI/SNF-related matrix-associated actin-dependent regulator of chromatin subfamily A member 5 (SMARCA5) (from UniProt O60264 1-1052) (enzyme) | – | binds | binds | –
3 | Topoisomerase I (TOP1) (from UniProt P11387 1-765) (enzyme) | binds | binds | binds | binding [9]: binds; binding [10]: binds

More lines, main results first:

Row | binding [1] | binding [2] | binding [3] | Substance | other results
4 | binds | binds | binds | DNA-dependent protein kinase (DNA-PK) (from UniProt P78527 1-4128) (enzyme) | –
5 | binds | binds | binds | FACT complex subunit SSRP1 (SSRP1) (from UniProt Q08945 1-709) | –
6 | binds | binds | binds | Facilitates chromatin transcription (FACT) complex subunit SPT16 (SUPT16H) (from UniProt Q9Y5B9 1-1047) | –
7 | binds | binds | binds | Topoisomerase II beta (TOP2B) (from UniProt Q02880 1-1626) (enzyme) | –
